Laboratory results taken from patent US8524666.
These are yes or no findings as the source states them, for the method shown. In cells and extracts the contact can be indirect. Some results given as binding are weak or reduced against the parent protein; the word gives no strength.

Sequences of proteins named here, by UniProt entry; tags and fusion partners are left off. A change or cut given only in a name is not applied to a line headed by its entry. Residues count along the entry.
UniProt P08670: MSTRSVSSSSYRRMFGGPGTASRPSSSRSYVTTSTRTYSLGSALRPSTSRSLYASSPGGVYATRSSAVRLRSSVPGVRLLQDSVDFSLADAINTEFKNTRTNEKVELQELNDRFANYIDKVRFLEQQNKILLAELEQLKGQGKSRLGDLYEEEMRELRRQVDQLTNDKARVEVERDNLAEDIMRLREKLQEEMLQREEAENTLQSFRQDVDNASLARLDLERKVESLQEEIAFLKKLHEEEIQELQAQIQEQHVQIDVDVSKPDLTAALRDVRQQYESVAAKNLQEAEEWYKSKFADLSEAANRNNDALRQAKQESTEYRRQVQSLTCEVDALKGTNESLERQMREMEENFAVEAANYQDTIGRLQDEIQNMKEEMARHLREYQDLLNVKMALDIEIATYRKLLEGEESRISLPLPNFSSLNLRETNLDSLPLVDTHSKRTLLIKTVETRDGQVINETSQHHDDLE
UniProt P16070, residues 21-132: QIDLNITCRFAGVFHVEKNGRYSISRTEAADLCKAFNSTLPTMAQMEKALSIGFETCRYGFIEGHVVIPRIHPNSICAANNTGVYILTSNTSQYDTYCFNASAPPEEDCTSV

Columns and labels:
[1] = target: endogenous vimentin of HUVEC (human) (UniProt P08670); assay: GST pull-down from HUVEC lysate
[2] = target: full length human vimentin expressed from pcDNA3.1/MycHis B in MCF-7 cells (human) (UniProt P08670); assay: GST pull-down from transfected MCF-7 lysate, western blot
[3] = target: vimentin deletion mutant containing aa 1-245 of SEQ ID NO: 1 (human) (UniProt P08670); assay: as above
[4] = target: endogenous vimentin of HUVEC (human) (UniProt P08670); assay: GST pull-down from surface-biotinylated HUVEC lysate, then streptavidin precipitation and western blot with mAb V9
[5] = target: endogenous vimentin of HUVEC (human) (UniProt P08670); assay: GST pull-down from HUVEC membrane lysate, western blot with mAb V9; also silver staining and peptide mass fingerprinting
[6] = target: endogenous vimentin of HUVEC (human) (UniProt P08670); assay: GST pull-down from HUVEC membrane lysate, western blot with mAb V9

Measured: binding

GST tagged CD44-HABD R41AR78SY79S mutant (CD44-3MUT) (from UniProt P16070 21-132)
binds: [1] | [2] | [3] | [4] | [5]

GST-tagged CD44 hyaluronic acid binding-domain (CD44-HABD) (from UniProt P16070 21-132)
binds: [1] | [2] | [3] | [6]
